This passage reports binding results from paper PMC7546217.

Sequences of proteins named here, by UniProt entry; tags and fusion partners are left off.
UniProt P21333: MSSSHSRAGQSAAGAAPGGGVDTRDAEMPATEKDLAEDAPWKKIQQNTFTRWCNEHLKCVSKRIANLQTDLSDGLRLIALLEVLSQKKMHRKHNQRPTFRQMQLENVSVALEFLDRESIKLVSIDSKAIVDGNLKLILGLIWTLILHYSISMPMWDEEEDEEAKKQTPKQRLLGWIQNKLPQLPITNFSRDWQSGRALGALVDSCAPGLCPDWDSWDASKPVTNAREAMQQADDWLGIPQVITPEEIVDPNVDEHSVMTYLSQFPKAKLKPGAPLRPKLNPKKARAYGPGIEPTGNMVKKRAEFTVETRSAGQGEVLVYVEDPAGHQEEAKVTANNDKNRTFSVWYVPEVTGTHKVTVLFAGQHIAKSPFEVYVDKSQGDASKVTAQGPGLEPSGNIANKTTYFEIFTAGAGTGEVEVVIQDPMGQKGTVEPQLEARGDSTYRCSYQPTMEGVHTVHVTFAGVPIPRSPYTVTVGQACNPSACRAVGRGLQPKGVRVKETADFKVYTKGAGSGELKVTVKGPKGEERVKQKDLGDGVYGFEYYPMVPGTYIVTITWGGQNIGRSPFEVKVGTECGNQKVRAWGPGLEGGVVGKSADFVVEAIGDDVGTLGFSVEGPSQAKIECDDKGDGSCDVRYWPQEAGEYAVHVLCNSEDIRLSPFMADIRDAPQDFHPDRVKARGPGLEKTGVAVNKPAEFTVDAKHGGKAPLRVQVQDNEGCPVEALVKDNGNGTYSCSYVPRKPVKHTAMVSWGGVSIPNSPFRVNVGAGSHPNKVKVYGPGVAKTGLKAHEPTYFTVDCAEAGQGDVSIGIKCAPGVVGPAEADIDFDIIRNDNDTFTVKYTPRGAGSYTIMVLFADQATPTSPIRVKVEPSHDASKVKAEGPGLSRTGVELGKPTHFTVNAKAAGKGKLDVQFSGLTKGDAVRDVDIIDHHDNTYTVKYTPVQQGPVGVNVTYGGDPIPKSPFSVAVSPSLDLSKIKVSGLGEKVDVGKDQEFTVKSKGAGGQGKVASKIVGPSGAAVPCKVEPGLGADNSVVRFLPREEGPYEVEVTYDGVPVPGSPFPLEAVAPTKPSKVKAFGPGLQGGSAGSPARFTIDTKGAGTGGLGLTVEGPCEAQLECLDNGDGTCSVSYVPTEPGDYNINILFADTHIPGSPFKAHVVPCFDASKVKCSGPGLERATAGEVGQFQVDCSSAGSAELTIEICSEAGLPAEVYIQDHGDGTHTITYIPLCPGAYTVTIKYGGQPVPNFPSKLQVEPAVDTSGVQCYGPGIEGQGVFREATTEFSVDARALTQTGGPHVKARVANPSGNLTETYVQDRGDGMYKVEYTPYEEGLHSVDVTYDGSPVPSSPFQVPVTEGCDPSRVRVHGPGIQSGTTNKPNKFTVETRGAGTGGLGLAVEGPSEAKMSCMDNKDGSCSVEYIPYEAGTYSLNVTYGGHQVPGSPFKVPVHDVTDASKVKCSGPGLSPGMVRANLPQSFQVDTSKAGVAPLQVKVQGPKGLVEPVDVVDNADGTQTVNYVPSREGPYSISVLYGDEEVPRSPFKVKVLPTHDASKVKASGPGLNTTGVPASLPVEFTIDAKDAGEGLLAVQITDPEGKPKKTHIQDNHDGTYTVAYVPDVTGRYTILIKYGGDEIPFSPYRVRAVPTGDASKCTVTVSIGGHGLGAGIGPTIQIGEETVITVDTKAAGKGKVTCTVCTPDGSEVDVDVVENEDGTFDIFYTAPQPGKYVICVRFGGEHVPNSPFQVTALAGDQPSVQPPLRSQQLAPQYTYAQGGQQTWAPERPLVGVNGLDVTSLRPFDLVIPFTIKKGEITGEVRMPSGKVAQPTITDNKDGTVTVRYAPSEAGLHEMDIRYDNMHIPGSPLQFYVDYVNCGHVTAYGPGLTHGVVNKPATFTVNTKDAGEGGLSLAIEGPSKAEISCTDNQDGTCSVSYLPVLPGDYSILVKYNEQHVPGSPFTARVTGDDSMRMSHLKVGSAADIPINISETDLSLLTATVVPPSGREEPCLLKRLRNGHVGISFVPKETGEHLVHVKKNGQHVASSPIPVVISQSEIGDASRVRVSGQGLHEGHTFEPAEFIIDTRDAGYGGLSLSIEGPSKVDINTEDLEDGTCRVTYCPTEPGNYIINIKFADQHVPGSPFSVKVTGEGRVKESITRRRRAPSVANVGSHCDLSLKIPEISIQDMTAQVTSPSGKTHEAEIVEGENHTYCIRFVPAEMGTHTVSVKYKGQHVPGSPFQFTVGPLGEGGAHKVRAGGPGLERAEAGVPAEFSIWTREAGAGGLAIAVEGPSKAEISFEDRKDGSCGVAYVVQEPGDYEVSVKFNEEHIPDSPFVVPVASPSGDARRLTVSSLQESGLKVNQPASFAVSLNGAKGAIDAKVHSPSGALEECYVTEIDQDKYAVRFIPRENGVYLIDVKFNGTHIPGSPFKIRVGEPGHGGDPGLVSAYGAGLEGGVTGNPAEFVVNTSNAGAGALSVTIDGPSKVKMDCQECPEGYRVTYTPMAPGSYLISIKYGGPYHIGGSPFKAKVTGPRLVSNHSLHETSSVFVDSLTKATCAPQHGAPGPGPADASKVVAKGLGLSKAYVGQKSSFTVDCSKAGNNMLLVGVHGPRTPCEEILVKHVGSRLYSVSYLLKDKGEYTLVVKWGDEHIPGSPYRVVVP
UniProt P03466: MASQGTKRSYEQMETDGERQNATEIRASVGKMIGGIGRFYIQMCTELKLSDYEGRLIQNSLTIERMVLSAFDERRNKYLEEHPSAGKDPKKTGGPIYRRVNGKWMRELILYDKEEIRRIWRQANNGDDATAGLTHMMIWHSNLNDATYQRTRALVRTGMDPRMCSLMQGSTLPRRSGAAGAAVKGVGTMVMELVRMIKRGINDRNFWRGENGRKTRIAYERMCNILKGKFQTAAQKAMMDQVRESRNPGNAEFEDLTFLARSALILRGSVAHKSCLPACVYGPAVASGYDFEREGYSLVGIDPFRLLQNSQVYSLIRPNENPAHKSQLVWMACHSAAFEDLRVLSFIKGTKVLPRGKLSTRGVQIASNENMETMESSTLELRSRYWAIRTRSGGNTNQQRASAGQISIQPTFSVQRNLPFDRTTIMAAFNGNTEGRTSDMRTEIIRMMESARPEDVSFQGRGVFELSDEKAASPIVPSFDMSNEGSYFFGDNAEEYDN

The target in the assay is Filamin A (FLNA), endogenous in HEK293 cells (human (endogenous in HEK293)) (UniProt P21333). Nature of the assay: co-IP.

No constants are given. Whether binding was seen depends on the method and setting. Binding seen in cells or lysates may run through a third protein. Some binding calls cover weakened binding; strength is not graded here.

Regarding “Influenza A virus nucleoprotein (NP) of A/Puerto Rico/8/34 (H1N1), expressed from the pcDNA3.1 myc-vector (from UniProt P03466 1-498)”, the binding result is “binds”.
